This is an account of results in PMC3511402, “Structural and Biochemical Studies on ATP Binding and Hydrolysis by the Escherichia coli RNA Chaperone Hfq” (PLoS ONE, 2012).

The chains behind the UniProt entries cited, without tags or fusion partners. Where a name states a change or a piece, a line headed by the entry shows the natural chain unless it says otherwise.
UniProt P0A6X3: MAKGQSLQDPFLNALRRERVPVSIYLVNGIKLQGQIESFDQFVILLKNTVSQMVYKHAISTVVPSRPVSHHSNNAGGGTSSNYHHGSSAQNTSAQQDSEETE

The target of the data set is Hfq (UniProt P0A6X3). Nature of the data set: EMSA. The conditions noted are these: binary complex, ATP does not destabilize unless in vast excess; EMSA: 10 mM Tris pH 7.5, 60 mM NH4Cl, 5 mM beta-mercaptoethanol, 2 mM MgOAc, 100 ng yeast tRNA, 5 nM labelled RNA, room temperature; native 4% gel in TAE; recombinant protein; residues 1-102; label: 5'-32P. On the technique in general: In EMSA bound probe runs differently from free probe, usually more slowly.

For at least one entry, the source does not settle the construct or the ends of the probe. At least one verdict rests on a figure or table, not on a statement of the authors.

AAAAAAAAAAAAAAAAAAAAAAAAAAA [poly(A)27]: the binding result is “binds”.
